Source: patent US20140329844A1, “METHOD OF RESTORING THE INCRETIN EFFECT” (NEURENDO PHARMA, LLC, priority 2006, published 2014)
“Also recorded” adds a separate entry of the source. At least one compound was matched to its structure with a doubt left.

Test: Blood glucose, HDL-C and triglycerides in rhesus monkeys after an oral dose of GNTI
Assay type: in vivo, rhesus monkey
Settings: individual animals, Day 8 vs Baseline, oral GNTI 86 ng/kg
Procedure: A cohort of rhesus monkeys having progressively increasing degrees of impaired glucose tolerance were monitored following an oral dose of GNTI of 86 ng/kg of body weight. Baseline readings of blood glucose (BC), high density lipoprotein C (HDL-C) and triglycerides (TO) were taken on Day 0.
The effect of GNTI was most readily seen in the change of blood glucose and blood lipid levels. […] The other 4 subjects of the cohort, i.e., r98060, r96027, r00072, r01078, had baseline blood glucose levels ranging from 71-81 and were considered to have impaired glucose tolerance.

SMILES: NC(N)=Nc1ccc2[nH]c3c(c2c1)C[C@@]1(O)[C@H]2Cc4ccc(O)c5c4[C@@]1(CCN2CC1CC1)[C@H]3O5 [GNTI, guanidinylated naltrindole]
- BG Change: (+) 29%; also recorded: (−) 28%; also recorded: (−) 16%; also recorded: (−) 30%
- HDL-C Change: (+) 5%; also recorded: (+)10%; also recorded: (+) 27%; also recorded: (+) 24%; also recorded: (+) 31%
- TG Change: (−)10%
